Experimental data taken from paper PMC7873974.
These are yes or no findings as the source states them, for the method shown. Binding seen in cells or lysates may run through a third protein. A result given as binding can be weak or reduced; the word gives no strength.

Amino acid sequences for entries named in this document (tags omitted). A change or cut given only in a name is not applied to a line headed by its entry.
UniProt A0A059T907: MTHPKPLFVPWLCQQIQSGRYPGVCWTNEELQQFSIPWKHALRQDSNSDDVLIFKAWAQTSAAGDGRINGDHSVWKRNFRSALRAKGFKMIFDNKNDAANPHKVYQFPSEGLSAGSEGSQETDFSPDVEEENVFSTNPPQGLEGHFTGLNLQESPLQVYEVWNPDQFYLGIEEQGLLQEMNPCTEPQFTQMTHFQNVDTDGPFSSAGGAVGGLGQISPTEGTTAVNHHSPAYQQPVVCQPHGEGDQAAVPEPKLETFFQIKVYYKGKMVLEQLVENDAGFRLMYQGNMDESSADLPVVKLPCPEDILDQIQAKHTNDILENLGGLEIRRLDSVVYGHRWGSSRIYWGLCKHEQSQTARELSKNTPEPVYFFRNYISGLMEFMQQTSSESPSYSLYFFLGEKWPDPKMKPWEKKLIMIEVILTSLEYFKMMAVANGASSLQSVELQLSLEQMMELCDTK

Molecular target: CiPPP1R3G-Flag (grass carp PPP1R3G, regulatory subunit of protein phosphatase 1) (grass carp (Ctenopharyngodon idella))
Assay: co-IP; HEK293T cells co-transfected with CiPPP1R3G-Flag and CiIRF3-Myc (control: pCMV-FLAG and CiIRF3-Myc); lysis buffer 1% NP-40, 50 mM Tris-HCl pH 7.5, 150 mM NaCl, 1 mM EDTA, 0.25% sodium deoxycholate; lysate with anti-Flag agarose beads overnight at 4°C; immunoblot with anti-Flag and anti-Myc

binding: binds
Substance: CiIRF3-Myc (grass carp IRF3) (from UniProt A0A059T907)
